# Measurements taken from PubChem BioAssay AID652054 (National Center for Advancing Translational Sciences (NCATS), 2013).
# The chains behind the UniProt entries cited, without tags or fusion partners.
# UniProt P35462, whole entry, looked up: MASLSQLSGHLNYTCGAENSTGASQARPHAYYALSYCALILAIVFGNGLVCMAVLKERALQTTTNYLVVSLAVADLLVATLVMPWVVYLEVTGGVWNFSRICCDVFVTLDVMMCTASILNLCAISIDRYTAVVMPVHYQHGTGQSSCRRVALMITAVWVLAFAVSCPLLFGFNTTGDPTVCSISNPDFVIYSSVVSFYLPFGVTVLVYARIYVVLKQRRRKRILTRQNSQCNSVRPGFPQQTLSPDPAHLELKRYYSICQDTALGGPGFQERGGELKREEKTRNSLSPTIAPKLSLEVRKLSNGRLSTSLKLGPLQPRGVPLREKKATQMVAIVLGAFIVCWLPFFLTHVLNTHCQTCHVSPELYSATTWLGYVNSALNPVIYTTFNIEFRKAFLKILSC
# “And” between values parts separate entries of the source, which are not always exact repeats. Identical values can stand only once. Screen size: about 360,000 compounds; about 9,100 (2.5%) were called active. The inconclusive results got no clear call from the source; some entries with a clear call stand among them for comparison. Rule as the data show it: active = max response below about -50%; inconclusive = no clear call, values can overlap the other calls; inactive = above that. Square brackets hold non-standard residues; d marks the D form. Peptide text beside a SMILES is read from it. * marks the point of attachment. ξ: configuration not given here. ξN = NC(=O)CC(N)C(=O)O; Boc = CC(C)(C)OC(=O)*
# Target: D(3) dopamine receptor (Homo sapiens) (UniProt P35462)
# Assay: qHTS of D3 Dopamine Receptor Antagonist: qHTS
# Conditions: D3R cells, DiscoveRx beta-arrestin luminescence, antagonist mode; hits give low values
# Summary of the method: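 Cells expressing the human receptor were seeded at 1500 cells/well, incubated overnight at 37 degrees C in 5% CO2, then exposed to library compounds with dopamine controls for 90 minutes at 37 degrees C before luminescent detection.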
# % is scaled to controls: 0 for no effect and ±100 for the full control effect.
row,Structure (SMILES),"max response, negative = inhibition"
1,Cc1cc(C)n(CCCNC(=O)C2CCC(=O)N(CCc3ccc(Cl)cc3)C2)n1 (configuration not stated),inactive: 1.35%
2,O=C(Cc1cccs1)Nc1ccccn1,inconclusive: -31.7%
3,O=C(Nc1ccc2c(c1)OCO2)C(=O)c1c[nH]c2ccccc12,inactive: -23.7%
4,COc1cccc(OCc2cc(C(=O)N3CCN(C(C)=O)CC3)no2)c1,inconclusive: -38.6%
5,CCc1nnc(NC(=O)c2oc3ccc(Br)cc3c2C)s1,inactive: -5.77%
6,COc1cccc(-c2sc3ccc(OC)cc3c2-c2ccc(OCCN3CCCC3)cc2)c1,inactive: 37.5%
7,CCOc1cc(N2CCOCC2)c(OCC)cc1NC(=O)[C@H](C)N1C(=O)C2CC=CCC2C1=O (some centres not stated),inactive: -1.45%
8,CC(=O)C1=C(O)C(=O)N(Cc2ccccc2)C1c1cccs1 (configuration not stated),inconclusive: -39.2%
9,Cc1ccc(NC(=O)CCN2C(=O)NC3(CCCC3)C2=O)c(C)c1,inconclusive: -30.4%
10,O=C(CSc1n[nH]c(-c2cccs2)n1)N1CCN(S(=O)(=O)c2ccc3ccccc3c2)CC1,active: -69.7%
11,O=C(NC(c1ccc(Cl)cc1)c1cc(Cl)c2cccnc2c1O)c1cccnc1 (configuration not stated),active: -100%
12,CCN(CC)CCNC(=O)c1ccc(Sc2ccc(C)cc2)c(NC(C)=O)c1,active: -87.7%
13,Cc1cc(N2CCN(C)CC2)nc2ccc(NC(=S)NCCN3CCc4ccccc4C3)cc12,active: -75.7%
14,O=C(NC12CC3CC(CC(C3)C1)C2)C1CC(=O)N(c2ccc(Br)cc2)C1 (configuration not stated),inconclusive: -39.1%
15,Cc1ccc(-c2noc(CCC(=O)NCCCN3CCN(c4ccc(F)cc4)CC3)n2)cc1,inactive: -0.06%
16,O=C(c1ccc(F)cc1)N1CCCC(C(=O)N2CCc3ccccc3C2)C1 (configuration not stated),inconclusive: -39.8%
17,COc1ccc(-c2cc(C(=O)c3c(N)n(C)c(=O)n(C)c3=O)c3ccccc3n2)cc1OC,inactive: -7.92%
18,COC(=O)CC1C(=O)NCCN1C(=S)Nc1ccc(F)cc1 (configuration not stated),inactive: 6.22%
19,O=C(O)Cc1c[nH]c2ccccc12,inactive: -1.55%
20,N#CC(c1ccccc1F)(c1ncc(C(F)(F)F)cc1Cl)N1CCOCC1 (configuration not stated),inconclusive: -32.2%
21,O=S1(=O)NC2CCCCCN2c2ccc(F)cc21 (configuration not stated),inactive: 17.3%
22,Cc1cccnc1Nc1nc(-c2ccc(O)cc2)cs1,inactive: 6.04%

row,Structure (SMILES),"max response, negative = inhibition"
1,CCc1ccc(C2CC(c3cccc(Cl)c3)n3nc(N)nc3N2)cc1 (configuration not stated),inconclusive: -32.8%
2,O=[N+]([O-])c1ccc(N2CCCC2)cc1NC1CC1,inactive: 13.1%
3,CCCCn1nc(NC(=O)CC)c2cc3cc(OC)ccc3nc21,inactive: 0.879%
4,O=C(C1CC(c2ccc(F)cc2)=NO1)N1CCN(c2ccccc2)CC1 (configuration not stated),inconclusive: -30.9%
5,COc1cc2c(C#CCCO)c(-c3ccsc3)oc(=O)c2cc1OC,inactive: 26.1%
6,COC(=O)CNC(=O)COC(=O)c1cc(SC)ccc1Cl,inactive: -2.13%
7,Cc1ccc(C)c(N2N=C(C(=O)NCCN3C(=O)S/C(=C\c4cccnc4)C3=O)CCC2=O)c1,inactive: 0.255%
8,Cc1ccc(C2=Nc3ccccc3NC(C)(c3ccc(C)o3)C2)o1 (configuration not stated),inconclusive: -36.9%
9,N#Cc1ccc(NC(=O)COC(=O)CCc2ccc(S(=O)(=O)N3CCCCC3)cc2)cc1,inconclusive: -40.1%
10,CCOc1ccc(C(=O)Nc2ccc(NC(=S)NC(=O)CC)cc2)cc1Cl,inconclusive: -35.1%
11,NC(=O)CC(NC(=O)c1ccccc1)c1ccc(NCCc2ccc(Cl)cc2)c([N+](=O)[O-])c1 (configuration not stated),inconclusive: -46.9%
12,Cc1ccc(Nc2nc(N3CCOCC3)nc(N3CCOCC3)n2)cc1,inactive: 9.28%
13,CC1CC(C)CN(CCCNC(=O)CN2C(=O)c3cccnc3Oc3ccc(Cl)cc32)C1 (configuration not stated),inconclusive: -46.7%
14,COC(=O)C1=C(CCc2ccccc2)NC(=O)NC1c1ccc(Cl)cc1 (configuration not stated),inactive: -21.9%
15,c1cc2c(cc1Cn1cnnn1)OCO2,active: -57.3%
16,COc1ccc(N2CCN(CCNC(=O)Nc3ccc(Cl)cc3)CC2)cc1,inconclusive: -32.7%
17,O=C1OC(c2ccccc2)=N/C1=C/c1cccc(OC(=O)c2cccs2)c1,inconclusive: -38.6%
18,Cc1ccccc1CN1CCN(C(=O)c2cccc(F)c2)CC1,active: -63.6%
19,Cc1ccc(NC(=S)N/N=C/c2ccc([N+](=O)[O-])s2)cc1,inconclusive: -42%
20,C=CCN(c1ccccc1)S(=O)(=O)c1cccc(C(=O)OCC(=O)NC2CC2)c1,inactive: -3.5%
21,OCCNc1ncnc2c1c(-c1ccccc1)c(-c1ccccc1)n2Cc1ccco1,inactive: -3.85%
22,O=C(O)/C=C\C(=O)Nc1cc(O)ccc1[N+](=O)[O-],inconclusive: -38.1%

row,Structure (SMILES),"max response, negative = inhibition"
1,Brc1ccc(CNCCCSc2ncccn2)cc1,active: -77.1%
2,O=C(Nc1ccccc1C(=O)N/N=C/c1ccc(F)cc1)c1ccccc1Br,inactive: 5.12%
3,O=c1oc(Nc2ccccc2Cl)nc2ccccc12,inconclusive: -39.5%
4,COc1ccc(-n2nnnc2C(c2cccc3ccccc23)N2CCN(C/C=C/c3ccccc3)CC2)cc1 (configuration not stated),active: -92%
5,COC1C=CC(CNC(=O)c2cc3c(=O)n4cccc(C)c4nc3n2C)(OC)O1 (configuration not stated),inconclusive: -43%
6,CC(C)Oc1ccc(S(=O)(=O)N2CCOCC2)cc1NC(=O)CSc1nnc(C2CC2)n1C,inactive: 15.4%
7,CCN(CC)CCN1CCn2c3c(c4cc(C)ccc42)CCCC31 (configuration not stated),inactive: -27.5%
8,O=C(COC(=O)c1cc(=O)c2ccccc2o1)NCc1ccc(Cl)cc1,inconclusive: -36%
9,Cc1ccc(C(=O)C2CCN(CC(=O)N3CCN(c4ccc(F)cc4)CC3)CC2)cc1,inconclusive: -37.3%
10,CCc1ccc(N=CC23c4ccccc4C(c4ccccc42)C2C(=O)N(c4ccc(OC)cc4)C(=O)C23)cc1 (configuration not stated),inconclusive: -30.5%
11,COc1cc(/C=C2/C(=O)NN(c3ccc(F)cc3)C2=O)cc([N+](=O)[O-])c1O,inconclusive: -43.8%
12,Cc1nc(SCC(=O)N2CCOCC2)c2ccsc2n1,inconclusive: -39.4%
13,CCOC(=O)CNC(=O)C(CC(N)=O)NC(=O)OC(C)(C)C (configuration not stated) (Boc-[ξN]-Gly-OEt),inconclusive: -45.3%
14,Cc1ccc(S(=O)(=O)n2nc(OC(=O)c3ccco3)cc2N)cc1,inconclusive: -41.4%
15,Cc1ccc(C)n1CCN1CCN(C(=O)c2ccc(Cl)cc2)CC1,active: -77.6%
16,CC(C)(C)OC(=O)C[C@@H]1C/C=C\C[C@@H](CC(=O)N(CCO)Cc2ccccc2)C(=O)NCCOC1=O,active: -123%
17,CC(C)CC1Nc2ncnc(N3CCN(c4ccccn4)CC3)c2N(Cc2ccc(Cl)cc2)C1=O (configuration not stated),inconclusive: -46.3% and inconclusive: -49.5%
18,CCCN(CCC)CCCNC(=O)c1cc2c(=O)n(CC)c3ccccc3c2s1,inactive: -9.56%
19,O=C(NC1CCCCC1)NC1(C(=O)N2CCN3CCCC3C2)CCCCC1 (configuration not stated),inconclusive: -47.2%
20,CCn1c2ccccc2c2nnc(SCC(=O)NCc3cccs3)nc21,inconclusive: -40.6%
21,Cc1cc(N/N=C/c2ccc(O)cc2O)nc(-n2nc(C)cc2C)n1,active: -122%
22,Nc1ccccc1C#CC(=O)c1ccccc1,inconclusive: -41.2%

row,Structure (SMILES),"max response, negative = inhibition"
1,COCCCn1cnc2c(c1=O)c1nc3ccccc3nc1n2-c1ccccc1,inconclusive: -34.6%
2,COc1ccc(C)c2sc(N(CCN(C)C)C(=O)/C=C/c3cccs3)nc12,active: -54.5%
3,COc1ccc2cc3cc(C(=O)Nc4ccccc4N4CCN(C)CC4)oc3nc2c1,inconclusive: -33.5%
4,COC(=O)C1=C(C(=O)OC)SC(=C2C(=S)C(C)(C)N(C(=O)C3CC3)c3ccccc32)S1,inactive: -26.4%
5,CON(C)C(=O)CC(CN(Cc1ccccc1)C(=O)OC(C)(C)C)c1ccc(Cl)cc1 (configuration not stated),inconclusive: -30.1%
6,NC(=O)c1cc(Cl)ccc1OCC(=O)N1CCCc2ccccc21,inactive: 7.13%
7,CC[N+](CC)=N/N=C1\C=CC[N+]([O-])=C1,inconclusive: -35.5%
8,CCC(CC)C(=O)NCc1ccc2c(c1)cc(C)n2C,inactive: -12.2%
9,Cc1cccc(-c2n[nH]c(=S)n2/N=C/c2ccco2)c1,inconclusive: -31.9%
10,COc1ccc(N(CC(=O)NC(C)(C)C)C(=O)CCC(=O)Nc2nccs2)c(OC)c1,inactive: 0.856%
11,Cn1c(-c2cccc(Br)c2)cnc1NCc1cccnc1,active: -59.6%
12,CC1CCC2(CC1)NC(=O)N(CC(=O)Nc1ccc(F)cc1)C2=O (configuration not stated),inconclusive: -36.4%
13,Cn1cnc(S(=O)(=O)N2CCCCC2c2cc(C(=O)Nc3cccc(C#N)c3)no2)c1 (configuration not stated),active: -80%
14,C#CCNC(=O)C1=C[C@H](c2ccc(Br)cc2)C[C@H](OCCCCO)O1,inconclusive: -32.9%
15,Cc1onc(-c2ccccc2)c1C(=O)OCC(=O)Nc1ccc2c(c1)OCO2,inconclusive: -30.6%
16,COc1cc(C2C(C(C)=O)=C(O)C(=O)N2CCc2c[nH]c3ccccc23)ccc1O (configuration not stated),active: -55.5%
17,COC(=O)c1sccc1-c1ccc(/C=N/OCc2c(Cl)cccc2Cl)o1,inconclusive: -35.3%
18,C=Cn1nc(C)c2ccccc2c1=O,inactive: 24.9%
19,Cc1oc(-c2ccc(Cl)cc2)nc1CS(=O)CC(=O)NCCCN1CCN(Cc2ccccc2)CC1 (configuration not stated),inconclusive: -31.4%
20,COc1cc2nc(NC(=O)c3ccccc3)sc(=O)c2cc1OC,inconclusive: -31.1%
21,Brc1ccccc1CN1CCC(N2CCCCC2)CC1,inconclusive: -48.7%
